Test results reported in paper PMC3762332.

The chains behind the UniProt entries cited, without tags or fusion partners. Where a name states a change or a piece, a line headed by the entry shows the natural chain unless it says otherwise.
UniProt Q8IW36: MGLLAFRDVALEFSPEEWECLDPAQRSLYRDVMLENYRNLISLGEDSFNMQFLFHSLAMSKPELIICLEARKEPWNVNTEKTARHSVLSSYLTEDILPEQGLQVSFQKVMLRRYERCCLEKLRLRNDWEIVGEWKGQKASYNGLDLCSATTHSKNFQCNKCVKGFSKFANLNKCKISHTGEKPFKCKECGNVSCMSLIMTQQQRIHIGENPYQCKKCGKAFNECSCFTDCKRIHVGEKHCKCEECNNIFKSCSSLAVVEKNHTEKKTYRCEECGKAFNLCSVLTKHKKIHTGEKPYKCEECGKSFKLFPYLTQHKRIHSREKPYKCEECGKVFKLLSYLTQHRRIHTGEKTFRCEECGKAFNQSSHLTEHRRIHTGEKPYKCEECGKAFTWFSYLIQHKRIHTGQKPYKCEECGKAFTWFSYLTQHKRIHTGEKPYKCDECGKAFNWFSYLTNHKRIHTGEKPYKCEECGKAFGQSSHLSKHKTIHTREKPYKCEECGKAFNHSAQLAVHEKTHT
UniProt Q9Y2L8: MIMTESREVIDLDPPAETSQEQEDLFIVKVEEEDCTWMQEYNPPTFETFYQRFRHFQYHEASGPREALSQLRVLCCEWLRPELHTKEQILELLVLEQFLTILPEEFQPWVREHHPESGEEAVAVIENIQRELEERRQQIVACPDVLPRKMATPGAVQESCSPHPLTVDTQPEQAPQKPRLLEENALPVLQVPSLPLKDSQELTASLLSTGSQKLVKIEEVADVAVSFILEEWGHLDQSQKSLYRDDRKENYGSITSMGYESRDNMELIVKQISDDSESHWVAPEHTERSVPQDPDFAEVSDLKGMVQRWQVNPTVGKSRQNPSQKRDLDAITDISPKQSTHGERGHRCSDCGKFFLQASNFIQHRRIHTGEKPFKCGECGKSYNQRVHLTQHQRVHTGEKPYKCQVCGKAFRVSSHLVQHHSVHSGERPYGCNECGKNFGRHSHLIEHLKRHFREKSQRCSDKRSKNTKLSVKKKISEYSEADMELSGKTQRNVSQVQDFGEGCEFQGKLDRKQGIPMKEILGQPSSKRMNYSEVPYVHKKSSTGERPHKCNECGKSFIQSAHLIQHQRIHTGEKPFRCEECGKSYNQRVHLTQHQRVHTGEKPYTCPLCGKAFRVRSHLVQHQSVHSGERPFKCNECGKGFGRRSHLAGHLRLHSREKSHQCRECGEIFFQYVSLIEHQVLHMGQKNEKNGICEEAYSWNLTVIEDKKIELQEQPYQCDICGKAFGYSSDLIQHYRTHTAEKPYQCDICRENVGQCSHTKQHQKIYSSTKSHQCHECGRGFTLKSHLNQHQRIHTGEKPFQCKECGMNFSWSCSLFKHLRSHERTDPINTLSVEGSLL
UniProt P05549: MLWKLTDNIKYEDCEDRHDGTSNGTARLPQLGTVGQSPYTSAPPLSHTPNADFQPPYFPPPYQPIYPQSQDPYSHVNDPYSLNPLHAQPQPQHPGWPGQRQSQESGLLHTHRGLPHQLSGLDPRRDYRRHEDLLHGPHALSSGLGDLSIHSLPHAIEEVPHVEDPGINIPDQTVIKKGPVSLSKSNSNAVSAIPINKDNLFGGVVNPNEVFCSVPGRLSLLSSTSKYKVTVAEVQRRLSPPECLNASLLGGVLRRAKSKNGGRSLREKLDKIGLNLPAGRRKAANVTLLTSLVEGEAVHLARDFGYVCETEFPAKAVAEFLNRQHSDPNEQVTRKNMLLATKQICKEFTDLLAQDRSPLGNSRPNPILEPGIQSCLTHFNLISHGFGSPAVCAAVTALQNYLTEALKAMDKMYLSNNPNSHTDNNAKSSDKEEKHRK
UniProt Q9BWM5: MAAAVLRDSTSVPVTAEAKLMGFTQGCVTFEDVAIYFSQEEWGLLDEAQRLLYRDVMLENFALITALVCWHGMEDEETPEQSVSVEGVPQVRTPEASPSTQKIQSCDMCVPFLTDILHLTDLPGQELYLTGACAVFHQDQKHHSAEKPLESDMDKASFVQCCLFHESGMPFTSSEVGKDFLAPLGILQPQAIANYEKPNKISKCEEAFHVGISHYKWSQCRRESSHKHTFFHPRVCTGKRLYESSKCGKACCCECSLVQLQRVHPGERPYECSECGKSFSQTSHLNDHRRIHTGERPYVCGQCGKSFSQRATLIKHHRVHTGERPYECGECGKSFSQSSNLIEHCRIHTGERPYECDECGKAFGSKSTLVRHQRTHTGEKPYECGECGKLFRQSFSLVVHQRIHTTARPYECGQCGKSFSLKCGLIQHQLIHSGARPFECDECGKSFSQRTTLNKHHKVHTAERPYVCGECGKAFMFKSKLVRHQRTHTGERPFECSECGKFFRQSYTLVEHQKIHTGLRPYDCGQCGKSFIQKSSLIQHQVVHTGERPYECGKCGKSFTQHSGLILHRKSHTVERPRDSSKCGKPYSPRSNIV
UniProt O00716: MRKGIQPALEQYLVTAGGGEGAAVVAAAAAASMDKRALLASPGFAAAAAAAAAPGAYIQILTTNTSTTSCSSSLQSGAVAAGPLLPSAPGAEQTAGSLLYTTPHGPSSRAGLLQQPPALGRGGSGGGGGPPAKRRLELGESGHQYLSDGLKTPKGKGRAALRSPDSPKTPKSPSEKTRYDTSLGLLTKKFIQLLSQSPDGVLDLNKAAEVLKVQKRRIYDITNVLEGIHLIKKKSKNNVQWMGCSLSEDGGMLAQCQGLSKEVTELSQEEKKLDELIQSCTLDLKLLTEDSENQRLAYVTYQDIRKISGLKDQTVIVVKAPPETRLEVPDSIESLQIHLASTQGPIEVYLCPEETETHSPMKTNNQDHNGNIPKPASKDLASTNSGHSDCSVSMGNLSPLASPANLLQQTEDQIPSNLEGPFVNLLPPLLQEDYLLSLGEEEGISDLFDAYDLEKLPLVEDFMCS
UniProt Q8NC26: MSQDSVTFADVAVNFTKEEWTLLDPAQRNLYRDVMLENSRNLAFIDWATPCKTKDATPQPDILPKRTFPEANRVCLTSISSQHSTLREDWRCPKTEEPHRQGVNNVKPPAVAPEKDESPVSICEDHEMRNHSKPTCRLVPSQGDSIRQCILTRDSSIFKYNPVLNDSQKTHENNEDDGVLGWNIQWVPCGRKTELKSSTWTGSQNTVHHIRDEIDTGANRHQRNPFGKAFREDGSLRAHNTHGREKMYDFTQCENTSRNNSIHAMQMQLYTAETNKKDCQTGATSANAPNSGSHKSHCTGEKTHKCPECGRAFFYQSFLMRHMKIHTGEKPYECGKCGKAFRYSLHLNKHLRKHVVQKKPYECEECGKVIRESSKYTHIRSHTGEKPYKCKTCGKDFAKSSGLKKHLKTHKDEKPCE
UniProt P20719: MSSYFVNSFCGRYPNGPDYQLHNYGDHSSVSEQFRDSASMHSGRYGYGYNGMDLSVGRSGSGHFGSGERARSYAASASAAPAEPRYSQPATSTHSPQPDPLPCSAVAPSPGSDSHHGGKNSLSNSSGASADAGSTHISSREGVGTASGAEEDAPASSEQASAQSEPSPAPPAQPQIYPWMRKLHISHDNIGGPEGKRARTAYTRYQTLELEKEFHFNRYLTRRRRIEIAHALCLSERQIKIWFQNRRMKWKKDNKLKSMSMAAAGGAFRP
UniProt P37231: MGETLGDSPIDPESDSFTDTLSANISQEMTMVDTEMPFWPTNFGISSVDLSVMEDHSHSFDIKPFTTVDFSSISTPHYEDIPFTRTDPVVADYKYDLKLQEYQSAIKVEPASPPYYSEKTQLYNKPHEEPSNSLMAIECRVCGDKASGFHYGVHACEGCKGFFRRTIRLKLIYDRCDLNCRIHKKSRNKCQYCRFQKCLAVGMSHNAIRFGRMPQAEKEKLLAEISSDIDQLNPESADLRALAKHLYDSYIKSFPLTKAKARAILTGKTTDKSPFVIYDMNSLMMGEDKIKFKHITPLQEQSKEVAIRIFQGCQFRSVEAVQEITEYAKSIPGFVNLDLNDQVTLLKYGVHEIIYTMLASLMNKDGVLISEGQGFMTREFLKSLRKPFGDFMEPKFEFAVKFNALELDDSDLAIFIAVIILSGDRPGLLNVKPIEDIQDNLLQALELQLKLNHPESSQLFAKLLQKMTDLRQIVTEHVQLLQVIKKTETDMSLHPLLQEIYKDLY
UniProt P43694: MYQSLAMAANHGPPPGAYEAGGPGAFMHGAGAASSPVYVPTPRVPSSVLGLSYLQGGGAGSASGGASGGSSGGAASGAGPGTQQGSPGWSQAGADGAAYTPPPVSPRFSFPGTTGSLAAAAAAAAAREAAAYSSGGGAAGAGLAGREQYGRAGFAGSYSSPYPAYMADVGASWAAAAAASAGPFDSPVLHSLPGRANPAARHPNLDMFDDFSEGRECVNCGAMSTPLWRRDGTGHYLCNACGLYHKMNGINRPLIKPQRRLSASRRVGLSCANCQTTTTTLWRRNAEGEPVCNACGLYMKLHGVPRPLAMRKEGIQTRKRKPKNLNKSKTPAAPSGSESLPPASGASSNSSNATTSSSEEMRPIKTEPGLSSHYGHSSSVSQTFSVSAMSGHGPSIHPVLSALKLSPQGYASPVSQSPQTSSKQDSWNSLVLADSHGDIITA
UniProt P19793: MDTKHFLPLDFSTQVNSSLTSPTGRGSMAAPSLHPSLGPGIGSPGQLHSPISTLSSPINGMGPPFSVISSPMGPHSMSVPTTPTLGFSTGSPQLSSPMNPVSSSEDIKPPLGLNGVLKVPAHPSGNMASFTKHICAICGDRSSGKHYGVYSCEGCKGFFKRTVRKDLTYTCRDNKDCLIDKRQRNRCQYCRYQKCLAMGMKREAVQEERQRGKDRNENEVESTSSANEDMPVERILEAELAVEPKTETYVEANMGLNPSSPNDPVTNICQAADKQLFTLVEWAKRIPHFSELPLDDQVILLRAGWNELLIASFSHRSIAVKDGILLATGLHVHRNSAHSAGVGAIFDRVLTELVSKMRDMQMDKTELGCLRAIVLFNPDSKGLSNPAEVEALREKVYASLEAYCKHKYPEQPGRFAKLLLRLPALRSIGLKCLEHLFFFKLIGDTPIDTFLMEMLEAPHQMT

What was measured:
Test in all cases: protein microarray
Conditions in all cases: 10-fold cold unmethylated competitor; 5mC at CpG (SssI, both strands); recombinant protein; protein details: GST (N-terminal); label: Cy5
ZNF695 (Homo sapiens) = ZNF695 (Homo sapiens) (UniProt Q8IW36)
ZKSCAN5 (Homo sapiens) = ZKSCAN5 (Homo sapiens) (UniProt Q9Y2L8)
TFAP2A (Homo sapiens) = TFAP2A (Homo sapiens) (UniProt P05549)
ZNF416 (Homo sapiens) = ZNF416 (Homo sapiens) (UniProt Q9BWM5)
E2F3 (Homo sapiens) = E2F3 (Homo sapiens) (UniProt O00716)
ZNF114 (Homo sapiens) = ZNF114 (Homo sapiens) (UniProt Q8NC26)
SCAPER (Homo sapiens) = biological target: T1, SCAPER (Homo sapiens) (UniProt Q9BY12)
T1 sequence (looked up, limits assumed): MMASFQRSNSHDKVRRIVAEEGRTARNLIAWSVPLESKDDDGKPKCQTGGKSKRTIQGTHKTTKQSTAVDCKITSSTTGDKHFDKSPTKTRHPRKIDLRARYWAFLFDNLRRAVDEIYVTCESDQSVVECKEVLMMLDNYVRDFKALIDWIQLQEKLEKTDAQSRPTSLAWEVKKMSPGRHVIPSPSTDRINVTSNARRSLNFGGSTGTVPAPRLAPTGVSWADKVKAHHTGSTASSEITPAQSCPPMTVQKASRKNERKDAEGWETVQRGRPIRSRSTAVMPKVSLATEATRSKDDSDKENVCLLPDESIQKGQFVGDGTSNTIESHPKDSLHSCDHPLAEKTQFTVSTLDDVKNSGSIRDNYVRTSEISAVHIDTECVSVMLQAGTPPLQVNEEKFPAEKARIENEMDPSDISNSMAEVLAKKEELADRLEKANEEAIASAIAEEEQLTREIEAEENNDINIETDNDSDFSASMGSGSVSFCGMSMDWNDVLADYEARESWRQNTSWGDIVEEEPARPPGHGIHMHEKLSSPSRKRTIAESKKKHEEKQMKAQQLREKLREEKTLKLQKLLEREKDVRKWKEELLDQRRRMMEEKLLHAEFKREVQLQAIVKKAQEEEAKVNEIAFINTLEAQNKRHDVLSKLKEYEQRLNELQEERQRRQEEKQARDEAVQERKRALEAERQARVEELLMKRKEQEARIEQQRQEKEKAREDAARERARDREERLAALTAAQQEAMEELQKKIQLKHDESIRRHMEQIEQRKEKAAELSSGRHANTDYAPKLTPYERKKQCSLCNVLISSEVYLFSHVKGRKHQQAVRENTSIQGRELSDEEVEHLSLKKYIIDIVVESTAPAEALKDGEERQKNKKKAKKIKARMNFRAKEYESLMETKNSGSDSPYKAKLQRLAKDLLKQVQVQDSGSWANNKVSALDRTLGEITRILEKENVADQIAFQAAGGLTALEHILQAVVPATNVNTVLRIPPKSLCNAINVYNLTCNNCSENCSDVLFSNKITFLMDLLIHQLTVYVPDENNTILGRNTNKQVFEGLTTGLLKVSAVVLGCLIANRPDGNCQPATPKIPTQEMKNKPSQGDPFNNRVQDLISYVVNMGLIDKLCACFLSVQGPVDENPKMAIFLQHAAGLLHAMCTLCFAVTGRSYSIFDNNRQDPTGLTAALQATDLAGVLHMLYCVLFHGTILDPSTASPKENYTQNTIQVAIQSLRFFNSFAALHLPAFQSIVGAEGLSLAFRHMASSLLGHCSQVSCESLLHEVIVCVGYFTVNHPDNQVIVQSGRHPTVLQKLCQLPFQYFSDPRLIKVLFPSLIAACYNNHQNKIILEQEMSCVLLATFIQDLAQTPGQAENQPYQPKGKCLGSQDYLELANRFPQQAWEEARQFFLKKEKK

HOXA5 (Homo sapiens) = HOXA5 (Homo sapiens) (UniProt P20719)
PPARG (Homo sapiens) = PPARG (Homo sapiens) (UniProt P37231)
RNF138 (Homo sapiens) = biological target: T2, RNF138 (Homo sapiens) (UniProt Q8WVD3)
T2 sequence (looked up, limits assumed): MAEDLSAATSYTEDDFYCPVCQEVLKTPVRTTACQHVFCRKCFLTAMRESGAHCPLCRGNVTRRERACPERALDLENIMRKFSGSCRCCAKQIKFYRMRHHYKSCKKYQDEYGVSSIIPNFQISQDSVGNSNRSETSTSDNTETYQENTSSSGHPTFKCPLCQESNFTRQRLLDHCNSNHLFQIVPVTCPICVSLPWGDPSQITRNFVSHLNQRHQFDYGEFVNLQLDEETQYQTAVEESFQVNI

GATA4 (Homo sapiens) = GATA4 (Homo sapiens) (UniProt P43694)
BCL3 (Homo sapiens) = biological target: T3, BCL3 (Homo sapiens) (UniProt P20749)
T3 sequence (looked up, limits assumed): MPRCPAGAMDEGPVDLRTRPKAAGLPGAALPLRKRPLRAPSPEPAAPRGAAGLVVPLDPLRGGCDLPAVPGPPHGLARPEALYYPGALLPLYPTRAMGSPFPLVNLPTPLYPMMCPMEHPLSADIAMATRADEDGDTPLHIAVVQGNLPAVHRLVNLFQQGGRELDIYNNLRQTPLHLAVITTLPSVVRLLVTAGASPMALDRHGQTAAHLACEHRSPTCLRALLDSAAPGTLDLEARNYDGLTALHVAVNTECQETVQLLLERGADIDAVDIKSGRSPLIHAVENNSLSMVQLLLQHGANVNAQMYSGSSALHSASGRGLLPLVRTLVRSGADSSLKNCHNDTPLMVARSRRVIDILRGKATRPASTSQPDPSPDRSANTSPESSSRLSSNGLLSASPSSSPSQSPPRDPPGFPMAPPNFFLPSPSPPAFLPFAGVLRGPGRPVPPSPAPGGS

SMAD4 (Homo sapiens) = biological target: T4, SMAD4 (Homo sapiens) (UniProt Q13485)
T4 sequence (looked up, limits assumed): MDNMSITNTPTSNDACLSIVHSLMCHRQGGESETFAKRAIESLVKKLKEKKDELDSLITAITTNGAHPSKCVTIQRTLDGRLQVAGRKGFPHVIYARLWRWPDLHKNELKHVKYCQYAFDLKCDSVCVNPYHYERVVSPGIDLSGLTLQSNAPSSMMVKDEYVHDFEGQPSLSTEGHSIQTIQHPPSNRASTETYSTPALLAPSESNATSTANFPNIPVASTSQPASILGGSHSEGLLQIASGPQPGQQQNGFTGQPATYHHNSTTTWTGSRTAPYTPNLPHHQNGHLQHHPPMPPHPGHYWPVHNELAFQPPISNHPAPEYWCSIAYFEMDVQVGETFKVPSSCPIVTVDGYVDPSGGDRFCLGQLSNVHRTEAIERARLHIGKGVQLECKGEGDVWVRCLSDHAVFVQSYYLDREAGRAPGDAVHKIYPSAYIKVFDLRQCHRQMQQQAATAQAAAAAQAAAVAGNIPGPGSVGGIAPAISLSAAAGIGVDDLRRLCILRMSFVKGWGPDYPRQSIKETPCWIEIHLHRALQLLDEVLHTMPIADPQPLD

RXRA (Homo sapiens) = RXRA (Homo sapiens) (UniProt P19793)
ZCCHC7 (Homo sapiens) = biological target: T5, ZCCHC7 (Homo sapiens) (UniProt Q8N3Z6)
T5 sequence (looked up, limits assumed): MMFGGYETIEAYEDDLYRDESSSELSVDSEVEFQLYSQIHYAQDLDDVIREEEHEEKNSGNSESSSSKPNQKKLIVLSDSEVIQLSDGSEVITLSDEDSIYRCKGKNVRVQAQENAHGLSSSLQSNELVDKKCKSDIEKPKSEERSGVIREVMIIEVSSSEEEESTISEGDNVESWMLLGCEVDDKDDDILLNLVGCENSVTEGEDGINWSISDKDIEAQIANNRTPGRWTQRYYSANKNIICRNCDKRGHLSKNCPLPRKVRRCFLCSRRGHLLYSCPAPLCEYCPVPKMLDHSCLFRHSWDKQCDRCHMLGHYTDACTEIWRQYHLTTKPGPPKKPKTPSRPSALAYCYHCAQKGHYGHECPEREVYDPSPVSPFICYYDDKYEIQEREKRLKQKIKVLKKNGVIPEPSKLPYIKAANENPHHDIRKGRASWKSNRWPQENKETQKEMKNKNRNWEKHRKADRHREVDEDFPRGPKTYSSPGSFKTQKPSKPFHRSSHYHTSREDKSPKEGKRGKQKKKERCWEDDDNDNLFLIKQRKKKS

Measured: binding result

TAGCGCAATCCCTAGCGCAATCCCTATAGTGAGTGCTATTA (double strand) [M272]
binds: ZNF695 (Homo sapiens) | ZKSCAN5 (Homo sapiens) | TFAP2A (Homo sapiens) | ZNF416 (Homo sapiens) | E2F3 (Homo sapiens) | ZNF114 (Homo sapiens)

TGACGGTACAGAAATGACGGTACAGCCCTATAGTGAGTGCTATTA (double strand) [M382]
binds: SCAPER (Homo sapiens) | ZNF695 (Homo sapiens) | ZKSCAN5 (Homo sapiens) | ZNF416 (Homo sapiens) | HOXA5 (Homo sapiens) | PPARG (Homo sapiens) | RNF138 (Homo sapiens) | ZNF114 (Homo sapiens)

AGCGAGTATCCCAGCGAGTATCCCTATAGTGAGTGCTATTA (double strand) [M273]
binds: GATA4 (Homo sapiens) | ZNF695 (Homo sapiens) | ZKSCAN5 (Homo sapiens) | ZNF416 (Homo sapiens) | E2F3 (Homo sapiens) | ZNF114 (Homo sapiens)

CCCGGAGAAACCCGGAGCCCTATAGTGAGTGCTATTA (double strand) [M302]
not listed: ZKSCAN5 (Homo sapiens)
binds: all other assays above

TAGCTACGACCCTAGCTACGACCCTATAGTGAGTGCTATTA (double strand) [M261]
binds: GATA4 (Homo sapiens) | ZNF695 (Homo sapiens) | ZKSCAN5 (Homo sapiens) | TFAP2A (Homo sapiens) | ZNF416 (Homo sapiens) | E2F3 (Homo sapiens) | ZNF114 (Homo sapiens)

TCTCACGCAACCCTCTCACGCAACCCTATAGTGAGTGCTATTA (double strand) [M57]
binds: ZKSCAN5 (Homo sapiens) | HOXA5 (Homo sapiens) | ZNF114 (Homo sapiens)

GAACGCTAGAAAGAACGCTAGCCCTATAGTGAGTGCTATTA (double strand) [M257]
binds: ZNF695 (Homo sapiens) | ZKSCAN5 (Homo sapiens) | ZNF416 (Homo sapiens) | E2F3 (Homo sapiens) | ZNF114 (Homo sapiens)

GCATGGCGGAAAGCATGGCGGCCCTATAGTGAGTGCTATTA (double strand) [M282]
binds: GATA4 (Homo sapiens) | ZNF695 (Homo sapiens) | ZKSCAN5 (Homo sapiens) | TFAP2A (Homo sapiens) | ZNF416 (Homo sapiens) | E2F3 (Homo sapiens) | ZNF114 (Homo sapiens)

GCTCGAAAGAAAGCTCGAAAGCCCTATAGTGAGTGCTATTA (double strand) [M270]
binds: ZNF695 (Homo sapiens) | ZKSCAN5 (Homo sapiens) | ZNF416 (Homo sapiens) | ZNF114 (Homo sapiens)

CCGCTTCTTTCCGCTTCCCCTATAGTGAGTGCTATTA (double strand) [M320]
not listed: ZKSCAN5 (Homo sapiens) | ZCCHC7 (Homo sapiens)
binds: all other assays above

CCGCCTCTTCCGAAACCGCCTCTTCCGCCCTATAGTGAGTGCTATTA (double strand) [M245]
binds: SCAPER (Homo sapiens) | ZKSCAN5 (Homo sapiens) | ZNF416 (Homo sapiens) | E2F3 (Homo sapiens)

GGCCACGTCAAAGGCCACGTCCCCTATAGTGAGTGCTATTA (double strand) [M288]
not listed: TFAP2A (Homo sapiens) | HOXA5 (Homo sapiens) | RNF138 (Homo sapiens) | BCL3 (Homo sapiens) | SMAD4 (Homo sapiens) | ZCCHC7 (Homo sapiens)
binds: all other assays above

CTGATTTCCCCGAAATGACGGAAACTGATTTCCCCGAAATGACGGCCCTATAGTGAGTGCTATTA (double strand) [M51]
binds: SCAPER (Homo sapiens) | ZKSCAN5 (Homo sapiens) | HOXA5 (Homo sapiens) | RXRA (Homo sapiens) | ZNF114 (Homo sapiens)

The exact form of at least one protein or probe is not confirmed. For some of these results: Protein sequences can lack the tags named with them.
